Reference: patent publication US20090092640A1
These are yes or no findings as the source states them, for the method shown. Some binding calls cover weakened binding; strength is not graded here.

By UniProt entry, the sequences of proteins in these tests, tags left out. Where a name states a change or a piece, a line headed by the entry shows the natural chain unless it says otherwise. Residues count along the entry.
UniProt O43557: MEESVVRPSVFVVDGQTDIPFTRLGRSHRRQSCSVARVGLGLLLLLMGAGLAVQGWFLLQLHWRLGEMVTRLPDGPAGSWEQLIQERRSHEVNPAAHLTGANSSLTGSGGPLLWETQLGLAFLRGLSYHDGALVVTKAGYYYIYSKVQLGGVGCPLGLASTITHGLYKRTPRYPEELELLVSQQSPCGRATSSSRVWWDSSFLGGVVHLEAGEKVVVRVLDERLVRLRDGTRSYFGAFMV
UniProt P50284, residues 31-223: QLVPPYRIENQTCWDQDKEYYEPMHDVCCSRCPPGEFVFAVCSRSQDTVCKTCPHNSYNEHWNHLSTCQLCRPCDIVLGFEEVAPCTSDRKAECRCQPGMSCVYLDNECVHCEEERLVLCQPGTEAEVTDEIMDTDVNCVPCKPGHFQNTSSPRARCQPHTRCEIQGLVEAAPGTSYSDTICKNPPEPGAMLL

Target: mutant human LIGHT (EQLI absent), expressed on AD293 cells (human) (UniProt O43557)
Test: flow cytometry, AD293 cells infected with adenovirus for mutant human LIGHT, stained with receptor-Ig

- binding: binds
Substance: recombinant mLTbR-huFc protein (from UniProt P50284 31-223) (Fc fusion)
